“And” between values parts separate entries of the source, which are not always exact repeats. Equal entries are not always repeated. Some of the results follow. Repeats are few or missing, and single values can be far off.
Assays:
[1] = test system: MEPP (mouse ovarian epithelium Trp53/Pten KO); assay: cell viability relative to untreated (fraction); higher = less growth inhibition; settings: 5 µM; 3 days
[2] = test system: PREPP (mouse prostate epithelium Trp53/Pten KO); assay: as above; settings: 5 µM; 3 days

Row | SMILES | cell viability [1] | cell viability [2]
1 | O=S(=O)(O)CCSSCCS(=O)(=O)O | 1.14 | 0.743
2 | COc1cc(OC)cc(OC)c1 | 1.27 | 0.961
3 | NC(=O)CC[C@H](N)C(=O)O | 1.1 | 0.894
4 | CC1=C(/C=C/C(C)=C/C=C/C(C)=C/C(=O)O)C(C)(C)CCC1 | 1.02 | 1.12
5 | CC(=O)N[C@@H](C)C(=O)O | 0.913 | 0.721
6 | N=C(N)NCCCCN | 0.877 | 0.92
7 | NCCC(=O)N[C@@H](Cc1c[nH]cn1)C(=O)O | 1.12 | 0.986
8 | N[C@@H](C(=O)N[C@@H]1C(=O)N2C(C(=O)O)=C(Cl)CS[C@H]12)c1ccccc1 | 1.21 | 0.98
9 | Nc1ncnc2c1ncn2[C@@H]1O[C@H](CSCC[C@H](N)C(=O)O)[C@@H](O)[C@H]1O | 0.76 | 1.07
10 | c1cn[nH]c1 | 0.923 | 1.03
11 | C=CCc1ccc(O)c(-c2cc(CC=C)ccc2O)c1 | 1.97 | 0.846
12 | C=CC[C@@H]1/C=C(\C)C[C@H](C)C[C@H](OC)[C@H]2O[C@@](O)(C(=O)C(=O)N3CCCC[C@H]3C(=O)O[C@H](/C(C)=C/[C@@H]3CC[C@@H](O)[C@H](OC)C3)[C@H](C)[C@@H](O)CC1=O)[C@H](C)C[C@@H]2OC | 0.961 | 0.905
13 | COc1cccc2c1C(=O)c1c(O)c3c(c(O)c1C2=O)C[C@@](O)(C(=O)CO)C[C@@H]3O[C@H]1C[C@H](N)[C@@H](O)[C@H](C)O1 | 0.674 | 0.43
14 | CO/N=C(\C(=O)N[C@@H]1C(=O)N2C(C(=O)O)=C(C)CS[C@H]12)c1csc(N)n1 | 1.23 | 1
15 | O=Cc1ccc(O)c(O)c1 | 0.858 | 0.821
16 | CCCCOc1cc(C(=O)NCCN(CC)CC)c2ccccc2n1 | 1.27 | 0.838
17 | CNC1CCCN(c2c(F)cc3c(=O)c(C(=O)O)cn(C4CC4)c3c2OC)C1 (stereo not drawn) | 1.1 | 1.02

Record cards, as listed above. Order of values: cell viability [1] | cell viability [2]
CCCCOc1cc(C(=O)NCCN(CC)CC)c2ccccc2n1 as listed: 1.27 | 0.838
NC(=O)CC[C@H](N)C(=O)O as listed: 1.1 | 0.894
CNC1CCCN(c2c(F)cc3c(=O)c(C(=O)O)cn(C4CC4)c3c2OC)C1 (stereo not drawn) as listed: 1.1 | 1.02

Carrying on.

Row | SMILES | cell viability [1] | cell viability [2]
18 | CC(=O)C1=C(O)C=C2Oc3c(C(C)=O)c(O)c(C)c(O)c3C2(C)C1=O (stereo not drawn) | 0.806 | 0.999
19 | FCOC(C(F)(F)F)C(F)(F)F | 0.867 | 0.875
20 | CCC(O)C(=O)O (stereo not drawn) | 0.897 | 0.855
21 | COc1cc(CO)ccc1O | 0.918 | 1.03
22 | C/C(=C/C(=O)O)C(=O)O | 0.853 | 0.968
23 | CCCC(=O)c1c(O)c(Cc2c(O)c(Cc3c(O)c(C)c(OC)c(C(=O)CCC)c3O)c(O)c(C(=O)[C@@H](C)CC)c2O)c(O)c(C)c1OC | 0.911 | 1.46
24 | O=C1C[C@@H](c2ccc(O[C@@H]3O[C@H](CO)[C@@H](O)[C@H](O)[C@H]3O)cc2)Oc2cc(O)ccc21 | 1.07 | 1.23
25 | O=C(O)c1c(O)cccc1O | 1.23 | 0.971
26 | O=C([O-])C(O)[C@H](O)[C@@H](O)[C@H](O)[C@H](O)CO.O=C([O-])C(O)[C@H](O)[C@@H](O)[C@H](O)[C@H](O)CO.[Ca+2] (stereo partly drawn) | 1.05 | 0.922
27 | COC1=CC(=O)C[C@@H](C)[C@]12Oc1c(Cl)c(OC)cc(OC)c1C2=O | 0.835 | 0.89
28 | COc1ccccc1/C=C/C(=O)O | 1.04 | 0.946
29 | NC(=O)c1cn(Cc2c(F)cccc2F)nn1 | 0.852 | 1.01
30 | O=c1ccc2ccc(O)cc2o1 | 0.851 | 0.93
31 | C[C@H](CCC(=O)O)[C@H]1CC[C@H]2[C@@H]3CC[C@@H]4C[C@H](O)CC[C@]4(C)[C@H]3C[C@H](O)[C@]12C | 0.863 and 1.09 | 0.77 and 0.933
32 | C[C@@H](c1ncncc1F)[C@](O)(Cn1cncn1)c1ccc(F)cc1F | 1.06 | 0.947
33 | Nc1cc(C(=O)O)ccc1O | 0.985 | 0.933
34 | Cn1c(=O)c2c(ncn2CC2OCCO2)n(C)c1=O | 0.999 | 1.01

Reference: the supplement of paper PMC12873370
